# Only a part is listed here, and it is no random draw.
# Protein sequences, listed by entry. Tags and fused reporters are not part of them. Lines headed by an entry give the natural chain unless they say otherwise; changes in a name come on top.
# UniProt Q86SK9: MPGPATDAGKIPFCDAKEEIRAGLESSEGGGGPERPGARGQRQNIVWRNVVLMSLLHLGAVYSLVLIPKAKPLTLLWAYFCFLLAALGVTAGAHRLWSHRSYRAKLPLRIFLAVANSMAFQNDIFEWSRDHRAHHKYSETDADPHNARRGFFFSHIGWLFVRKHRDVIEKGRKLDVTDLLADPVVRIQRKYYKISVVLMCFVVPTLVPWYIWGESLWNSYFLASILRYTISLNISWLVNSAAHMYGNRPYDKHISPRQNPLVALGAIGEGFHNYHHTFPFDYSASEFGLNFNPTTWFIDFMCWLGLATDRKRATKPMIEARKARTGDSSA
# UniProt Q7Z4Q2: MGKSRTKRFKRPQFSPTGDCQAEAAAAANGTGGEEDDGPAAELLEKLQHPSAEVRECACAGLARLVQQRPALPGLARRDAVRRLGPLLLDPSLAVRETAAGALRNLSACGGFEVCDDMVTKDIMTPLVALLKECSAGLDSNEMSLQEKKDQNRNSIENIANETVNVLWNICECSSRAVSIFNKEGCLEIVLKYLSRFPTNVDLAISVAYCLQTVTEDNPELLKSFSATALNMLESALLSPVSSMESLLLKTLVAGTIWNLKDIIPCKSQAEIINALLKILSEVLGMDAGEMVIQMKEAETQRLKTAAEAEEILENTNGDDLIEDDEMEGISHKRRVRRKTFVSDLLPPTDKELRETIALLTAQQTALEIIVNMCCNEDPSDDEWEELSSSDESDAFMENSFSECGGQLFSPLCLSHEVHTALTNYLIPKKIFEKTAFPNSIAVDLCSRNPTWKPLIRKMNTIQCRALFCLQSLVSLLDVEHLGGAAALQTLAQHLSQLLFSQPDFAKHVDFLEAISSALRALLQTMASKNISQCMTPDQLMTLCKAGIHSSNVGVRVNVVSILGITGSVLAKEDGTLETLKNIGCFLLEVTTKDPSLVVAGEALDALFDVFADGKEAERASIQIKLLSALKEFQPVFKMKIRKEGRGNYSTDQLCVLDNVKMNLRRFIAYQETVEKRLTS
# UniProt Q7Z695: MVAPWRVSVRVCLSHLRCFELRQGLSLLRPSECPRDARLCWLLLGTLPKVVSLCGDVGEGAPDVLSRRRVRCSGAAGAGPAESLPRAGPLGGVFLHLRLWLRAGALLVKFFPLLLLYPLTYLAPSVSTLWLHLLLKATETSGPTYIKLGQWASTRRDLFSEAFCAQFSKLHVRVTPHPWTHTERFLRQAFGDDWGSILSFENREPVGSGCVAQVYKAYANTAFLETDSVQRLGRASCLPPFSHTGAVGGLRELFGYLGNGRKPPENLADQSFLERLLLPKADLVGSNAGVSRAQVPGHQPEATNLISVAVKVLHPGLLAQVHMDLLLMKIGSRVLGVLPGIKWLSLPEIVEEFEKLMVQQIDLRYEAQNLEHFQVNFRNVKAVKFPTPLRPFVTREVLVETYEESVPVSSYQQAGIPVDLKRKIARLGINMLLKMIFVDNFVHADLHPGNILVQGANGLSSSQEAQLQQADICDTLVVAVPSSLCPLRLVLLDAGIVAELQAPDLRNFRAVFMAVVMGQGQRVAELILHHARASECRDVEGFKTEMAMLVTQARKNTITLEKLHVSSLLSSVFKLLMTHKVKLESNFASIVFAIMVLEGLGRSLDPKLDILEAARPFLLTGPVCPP
# UniProt Q86Y56: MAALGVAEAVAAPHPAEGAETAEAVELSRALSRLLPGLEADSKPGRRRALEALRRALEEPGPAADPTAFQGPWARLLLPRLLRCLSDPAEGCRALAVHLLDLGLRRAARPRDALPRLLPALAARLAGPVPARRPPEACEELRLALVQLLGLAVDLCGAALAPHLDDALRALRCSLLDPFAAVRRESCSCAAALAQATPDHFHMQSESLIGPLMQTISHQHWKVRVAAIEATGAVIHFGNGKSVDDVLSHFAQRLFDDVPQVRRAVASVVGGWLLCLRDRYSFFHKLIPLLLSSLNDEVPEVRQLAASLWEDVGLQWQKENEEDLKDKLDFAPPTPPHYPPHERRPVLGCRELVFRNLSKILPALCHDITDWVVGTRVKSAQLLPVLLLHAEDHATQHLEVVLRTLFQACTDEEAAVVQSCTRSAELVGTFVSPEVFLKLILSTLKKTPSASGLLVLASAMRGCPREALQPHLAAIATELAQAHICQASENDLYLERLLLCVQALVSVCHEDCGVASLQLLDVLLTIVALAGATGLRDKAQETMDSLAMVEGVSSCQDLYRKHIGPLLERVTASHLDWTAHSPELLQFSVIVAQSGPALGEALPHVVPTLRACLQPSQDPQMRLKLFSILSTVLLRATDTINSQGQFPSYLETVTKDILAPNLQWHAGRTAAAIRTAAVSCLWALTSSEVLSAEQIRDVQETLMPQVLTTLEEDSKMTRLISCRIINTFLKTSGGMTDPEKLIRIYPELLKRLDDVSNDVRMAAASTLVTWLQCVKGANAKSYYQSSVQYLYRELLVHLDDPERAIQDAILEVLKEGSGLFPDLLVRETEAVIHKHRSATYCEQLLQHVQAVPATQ
# UniProt Q8IYQ7: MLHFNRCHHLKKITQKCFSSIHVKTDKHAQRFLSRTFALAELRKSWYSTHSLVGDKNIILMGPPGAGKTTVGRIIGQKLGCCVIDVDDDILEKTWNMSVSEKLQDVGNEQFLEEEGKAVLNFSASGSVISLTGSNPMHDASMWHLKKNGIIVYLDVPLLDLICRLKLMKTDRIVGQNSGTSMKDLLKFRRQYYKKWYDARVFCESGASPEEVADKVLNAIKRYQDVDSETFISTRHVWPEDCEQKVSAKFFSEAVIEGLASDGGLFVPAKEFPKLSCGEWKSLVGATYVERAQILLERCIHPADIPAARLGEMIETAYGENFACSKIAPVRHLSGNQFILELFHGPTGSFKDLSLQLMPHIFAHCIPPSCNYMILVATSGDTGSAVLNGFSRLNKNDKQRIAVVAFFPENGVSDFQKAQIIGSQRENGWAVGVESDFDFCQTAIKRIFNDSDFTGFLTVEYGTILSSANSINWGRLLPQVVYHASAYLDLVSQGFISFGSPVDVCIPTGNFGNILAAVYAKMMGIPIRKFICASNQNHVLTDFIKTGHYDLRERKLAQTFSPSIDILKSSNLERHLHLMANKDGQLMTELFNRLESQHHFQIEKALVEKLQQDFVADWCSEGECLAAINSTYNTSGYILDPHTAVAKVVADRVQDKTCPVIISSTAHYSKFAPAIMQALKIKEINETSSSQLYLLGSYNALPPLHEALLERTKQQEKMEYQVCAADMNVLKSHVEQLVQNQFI
# UniProt Q7L8W6: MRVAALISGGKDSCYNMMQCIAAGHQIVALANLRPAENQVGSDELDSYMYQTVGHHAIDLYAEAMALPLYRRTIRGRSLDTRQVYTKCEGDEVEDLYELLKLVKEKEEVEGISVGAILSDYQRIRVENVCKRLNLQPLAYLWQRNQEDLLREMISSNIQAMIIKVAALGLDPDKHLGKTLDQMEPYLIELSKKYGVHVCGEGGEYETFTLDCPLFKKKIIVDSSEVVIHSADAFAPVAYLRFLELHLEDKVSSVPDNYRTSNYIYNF
# UniProt Q8IZ69: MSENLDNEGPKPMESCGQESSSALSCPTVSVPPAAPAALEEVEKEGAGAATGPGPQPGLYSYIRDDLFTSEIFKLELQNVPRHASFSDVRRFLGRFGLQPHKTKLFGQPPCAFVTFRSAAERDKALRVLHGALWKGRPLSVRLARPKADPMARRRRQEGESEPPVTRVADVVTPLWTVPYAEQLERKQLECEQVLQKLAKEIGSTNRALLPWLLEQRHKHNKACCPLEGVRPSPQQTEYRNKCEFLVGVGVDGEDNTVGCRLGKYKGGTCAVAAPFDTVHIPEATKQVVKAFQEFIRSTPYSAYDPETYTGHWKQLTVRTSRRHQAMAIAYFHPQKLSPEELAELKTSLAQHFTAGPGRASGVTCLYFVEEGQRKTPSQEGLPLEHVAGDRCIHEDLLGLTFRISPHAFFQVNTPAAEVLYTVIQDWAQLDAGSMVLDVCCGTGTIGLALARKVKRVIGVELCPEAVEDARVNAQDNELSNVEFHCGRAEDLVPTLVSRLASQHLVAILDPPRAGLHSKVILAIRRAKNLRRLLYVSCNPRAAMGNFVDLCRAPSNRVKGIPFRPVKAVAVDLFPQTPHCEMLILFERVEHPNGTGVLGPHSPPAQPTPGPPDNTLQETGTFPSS
# UniProt Q7L2E3: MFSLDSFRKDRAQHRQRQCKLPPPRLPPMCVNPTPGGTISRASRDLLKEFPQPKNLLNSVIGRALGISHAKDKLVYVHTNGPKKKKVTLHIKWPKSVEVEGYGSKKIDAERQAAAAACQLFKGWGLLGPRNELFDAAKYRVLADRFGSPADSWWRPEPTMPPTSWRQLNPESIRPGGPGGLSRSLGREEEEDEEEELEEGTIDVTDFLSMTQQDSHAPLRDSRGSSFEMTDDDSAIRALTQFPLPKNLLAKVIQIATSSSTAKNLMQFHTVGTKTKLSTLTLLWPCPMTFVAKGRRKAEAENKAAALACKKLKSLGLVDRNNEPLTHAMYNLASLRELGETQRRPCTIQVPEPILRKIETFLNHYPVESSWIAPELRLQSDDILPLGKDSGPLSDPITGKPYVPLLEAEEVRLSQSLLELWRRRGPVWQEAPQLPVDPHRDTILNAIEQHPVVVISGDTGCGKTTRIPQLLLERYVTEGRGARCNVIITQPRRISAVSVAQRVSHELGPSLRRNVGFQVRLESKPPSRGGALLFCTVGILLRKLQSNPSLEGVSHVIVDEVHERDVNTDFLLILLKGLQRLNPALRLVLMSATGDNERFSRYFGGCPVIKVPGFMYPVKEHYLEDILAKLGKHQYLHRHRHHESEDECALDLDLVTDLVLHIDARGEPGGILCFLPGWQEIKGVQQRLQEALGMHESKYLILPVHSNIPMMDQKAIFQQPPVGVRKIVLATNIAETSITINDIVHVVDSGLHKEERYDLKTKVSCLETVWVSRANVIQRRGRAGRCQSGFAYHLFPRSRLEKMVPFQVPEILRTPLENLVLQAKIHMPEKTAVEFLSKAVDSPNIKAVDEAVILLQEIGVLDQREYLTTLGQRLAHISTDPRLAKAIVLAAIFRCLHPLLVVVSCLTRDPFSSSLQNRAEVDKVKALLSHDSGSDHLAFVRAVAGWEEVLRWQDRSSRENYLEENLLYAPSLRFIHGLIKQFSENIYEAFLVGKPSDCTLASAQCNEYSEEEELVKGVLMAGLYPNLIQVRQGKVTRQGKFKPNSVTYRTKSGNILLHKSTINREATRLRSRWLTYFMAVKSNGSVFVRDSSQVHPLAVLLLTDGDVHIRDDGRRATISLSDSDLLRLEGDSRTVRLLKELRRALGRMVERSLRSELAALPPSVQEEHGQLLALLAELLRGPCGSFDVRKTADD
# UniProt Q86SQ0: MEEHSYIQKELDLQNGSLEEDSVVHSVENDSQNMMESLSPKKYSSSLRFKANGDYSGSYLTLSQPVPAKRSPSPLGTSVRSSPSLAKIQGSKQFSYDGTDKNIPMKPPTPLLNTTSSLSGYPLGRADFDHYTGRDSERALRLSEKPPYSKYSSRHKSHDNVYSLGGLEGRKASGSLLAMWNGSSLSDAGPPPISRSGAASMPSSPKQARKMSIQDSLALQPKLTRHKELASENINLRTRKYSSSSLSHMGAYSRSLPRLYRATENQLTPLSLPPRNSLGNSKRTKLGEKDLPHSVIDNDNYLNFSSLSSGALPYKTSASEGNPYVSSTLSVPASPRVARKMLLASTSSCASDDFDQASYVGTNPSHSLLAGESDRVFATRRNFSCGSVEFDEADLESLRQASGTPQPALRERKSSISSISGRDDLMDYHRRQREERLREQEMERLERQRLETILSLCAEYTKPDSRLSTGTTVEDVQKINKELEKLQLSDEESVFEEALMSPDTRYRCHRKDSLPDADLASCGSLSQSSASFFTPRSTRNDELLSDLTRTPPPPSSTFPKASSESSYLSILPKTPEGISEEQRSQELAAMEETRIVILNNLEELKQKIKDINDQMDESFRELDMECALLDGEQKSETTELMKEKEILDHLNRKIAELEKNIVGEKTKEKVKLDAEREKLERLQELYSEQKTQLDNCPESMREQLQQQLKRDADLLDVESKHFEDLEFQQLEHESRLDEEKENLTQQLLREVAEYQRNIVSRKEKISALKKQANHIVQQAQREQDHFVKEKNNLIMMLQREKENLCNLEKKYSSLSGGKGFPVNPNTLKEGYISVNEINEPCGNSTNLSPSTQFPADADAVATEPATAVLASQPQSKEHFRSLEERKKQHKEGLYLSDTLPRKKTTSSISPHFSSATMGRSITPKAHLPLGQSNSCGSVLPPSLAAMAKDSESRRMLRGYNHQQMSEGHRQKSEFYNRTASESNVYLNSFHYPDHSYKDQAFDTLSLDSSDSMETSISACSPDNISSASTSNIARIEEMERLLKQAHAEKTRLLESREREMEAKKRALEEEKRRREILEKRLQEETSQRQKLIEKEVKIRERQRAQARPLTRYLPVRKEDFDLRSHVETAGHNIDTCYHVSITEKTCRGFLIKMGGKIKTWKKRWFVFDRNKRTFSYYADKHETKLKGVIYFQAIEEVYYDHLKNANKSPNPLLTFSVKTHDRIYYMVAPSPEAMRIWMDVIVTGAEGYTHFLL
# Compound: COC(=O)C#Cc1ccccc1 [methyl 3-phenylpropiolate]
# Experiment: log2 ratio of iodoacetamide-alkyne labeling of the cysteine site, DMSO over compound (competition); higher = stronger covalent engagement of the cysteine by the compound, active = 1 or more
# Settings: 500 µM; treatment time 1 h; system: HEK293T cell lysate
# Procedure, shortened: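 HEK293T lysate (2 mg/mL) was treated with DMSO or electrophile (500 µM, 1 h, ambient temperature), then iodoacetamide alkyne (1 h), clicked to sCIP-TMT reagents, pooled, trypsin-digested overnight at 37 °C, streptavidin-enriched and acid-eluted. Peptides were run on Orbitrap Eclipse LC-MS/MS with FAIMS and quantified in FragPipe. The log2 competition ratio per cysteine is mean control-channel over mean compound-channel reporter intensity. Duplicate channels and three replicates were used, and cysteines quantified in only one replicate were excluded.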
row,Target,log2 ratio of iodoacetamide-alkyne labeling
1,SCD5 C14 (UniProt Q86SK9),inactive: 0.36
2,HEATR3 C534 (UniProt Q7Z4Q2),inactive: 0.405
3,HPS6 C695 (UniProt Q86YV9),inactive: 0.394
4,UniProt Q7Z695_C624,inactive: 0.296
5,ALDH16A1 C28 (UniProt Q8IZ83),inactive: 0.336
6,ANKLE2 C367 (UniProt Q86XL3),inactive: 0.265
7,IRF2BP1 C363 (UniProt Q8IU81),inactive: 0.0738
8,CAND1 C275 (UniProt Q86VP6),inactive: -0.226
9,DHX37 C1083 (UniProt Q8IY37),inactive: 0.258
10,IRF2BP2 C16 (UniProt Q7Z5L9),inactive: 0.113
11,UniProt Q86YR5_C497,inactive: 0.463
12,UniProt Q86Y56_C841,inactive: 0.052
13,UniProt Q86Y56_C349,inactive: 0.458
14,CYFIP1 C98 (UniProt Q7L576),active: 1.78
15,SETX C997 (UniProt Q7Z333),inactive: 0.498
16,THNSL1 C82 (UniProt Q8IYQ7),inactive: 0.297
17,ZFYVE16 C174 (UniProt Q7Z3T8),inactive: 0.35
18,ELMOD2 C285 (UniProt Q8IZ81),inactive: -0.137
19,UniProt Q7L8W6_C88,inactive: 0.839

# As entered above.
# log2 ratio of iodoacetamide-alkyne labeling with IRF2BP2 C16 (UniProt Q7Z5L9) is entered as inactive: 0.113
# log2 ratio of iodoacetamide-alkyne labeling with UniProt Q7Z695_C624 is entered as inactive: 0.296

# Remaining list, next part

row,Target,log2 ratio of iodoacetamide-alkyne labeling
1,GATAD2A C420 (UniProt Q86YP4),inactive: 0.297
2,CYFIP1 C179 (UniProt Q7L576),inactive: 0.212
3,HPS6 C408 (UniProt Q86YV9),inactive: 0.769
4,TRMT2A C463 (UniProt Q8IZ69),active: 1.1
5,USP48 C658 (UniProt Q86UV5),inactive: 0.11
6,DHX30 C346 (UniProt Q7L2E3),inactive: 0.258
7,KIAA2013 C185 (UniProt Q8IYS2),inactive: 0.14
8,THOC6 C314 (UniProt Q86W42),inactive: 0.0566
9,WDR75 C12 (UniProt Q8IWA0),inactive: 0.0253
10,CKAP2L C124 (UniProt Q8IYA6),inactive: 0.747
11,TRMT2A C111 (UniProt Q8IZ69),inactive: 0.0928
12,SLFN11 C51 (UniProt Q7Z7L1),inactive: 0.0378
13,KTN1 C303 (UniProt Q86UP2),inactive: 0.0888
14,PHLDB2 C385 (UniProt Q86SQ0),inactive: 0.605
15,ISCA2 C146 (UniProt Q86U28),active: 1.59
16,TRMT2A C392 (UniProt Q8IZ69),inactive: 0.517
17,FAM122B C155 (UniProt Q7Z309),active: 1.05
18,PHF6 C45 (UniProt Q8IWS0),inactive: 0.16
